Results as given in patent publication US20220096664A1, “STABILIZED FORMULATIONS CONTAINING IODINATED CONTRAST AGENTS AND CYCLODEXTRINS” (Verrow Pharmaceuticals, Inc., priority 2012, published 2022).
At least one compound was matched to its structure with a doubt left.

Assays:
[1] = Photostability: iodide formed after UV light irradiation; assay type: physicochemical; conditions: 473 mM iohexol; for I- formed, UV: 10 mM TRIS, pH 7.4, UV 18 h; for I^− formed: pH 8.0, UV 24 h
Description: Aqueous solutions comprising iodinated contrast agents were prepared and evaluated in a photolysis chamber as described in the ICH guidance document, Q1B Photostability Testing of New Drug Substances and Products, available from the US Food and Drug Administration, incorporated herein by reference. The solutions were placed in 1 cm×1 cm (3 mL) quartz cuvettes having 2 clear sides and 2 sides etched. Lids were placed on the cuvettes and sealed with a wrap of Parafilm® around the joint. The cuvettes were placed in a photolysis chamber, upright on a flat surface beneath and centered between two horizontal 24 inch fluorescent lamps, (GE, black light F20T12, 20 watt for ultraviolet, or Philips F20T12/CW, 20 watt for visible) placed 6 cm apart. The cuvettes were positioned such that their two clear sides were facing the two lamps.
Cuvettes were spaced ˜2 cm from each other, and no closer than 15 cm from the ends of the lamps. This positioning allowed reproducible light exposure to all cuvettes.
The lamps were switched on and the solutions irradiated for 18 to 24 hours for the ultraviolet (UV) lamps or 72 to 90 hours for the visible (VIS) light lamps. At the end of the selected irradiation time, the cuvettes were removed from the photolysis chamber and mixed by inversion 2-times. The caps were then removed and 40 microliter aliquots taken and diluted with 1 mL of an aqueous solution containing ˜0.9 mg/mL sodium thiosulfate. The thiosulfate solution converted any I2, IO3^−, and I3^− present in the solution tor such that total iodine species could be determined in one assay.
The diluted solutions were assayed by high pressure liquid chromatography (HPLC) using a 4.6×250 mm, C-18, 5 micron particle size, reversed phase column with detection at 280 nm for the contrast agent and 230 nm for the thiosulfate and the iodide ion (r). A mobile phase of 30:70 methanol:aqueous buffer (50 mM KH2PO4+7 mL/L 40% tetrabutyl ammonium hydroxide) at 0.75 mL/min was used for elution. Injection volume was 20 microliters. External standards were prepared containing each contrast agent, potassium iodide, and sodium thiosulfate solution and analyzed along with the irradiated samples. The results were reported as weight percentage iodide formed (mg iodide/mg contrast agent times 100).
The absorbance readings at 400 nm due to light exposure were plotted against time of exposure and the resulting correlation used to determine the UV and VIS light exposure. A change in absorbance reading of 0.45 was assumed equivalent to 200 watt hours/square meter for the UV light and a change of 0.51 was assumed equivalent to 1.2 million lux hours for the VIS light. The UV lamps provided 6.62 watts/square meter and the VIS lamps provided 7180 lux.
Aqueous solutions were prepared containing 50 mM contrast agent by diluting commercially available solutions with water. Tromethamine HCl buffer (TRIS), was added to solutions as necessary to increase the TRIS content to that of the commercial product before dilution.
SCD was added to the solutions at various mole ratios and the pH of the solutions adjusted to 7.4 with 0.1N hydrochloric acid or 0.1N sodium hydroxide. The solutions were irradiated with UV light for 18 hours (119 watt hours/m^2) then processed, analyzed and reported as in Example 2. The SCDs evaluated were sulfobutyl ether beta-cyclodextrin with an average degree of substitution of 7 (SBE-704CD), and two 2-hydroxypropyl beta-cyclodextrin derivatives having 6.3 (HP-6.3n/CD) and 4.3 (HP-4.3-βCD) average degrees of substitution.
Aqueous solutions were prepared containing 50 mM contrast agent by diluting commercially available solutions with distilled water. Tromethamine HCl buffer (TRIS), was added to some solutions to increase the buffer content.
The solutions were divided and SBE-7-CD added to one aliquot at a contrast agent:SCD mole ratio of 1:1. The pH of the solutions was adjusted to 5, 6, 7, 7.4 or 8 with 0.1N hydrochloric acid or sodium hydroxide. […]

[2] = Membrane permeation method, complexation of sulfobutylether beta-cyclodextrin with iohexol; assay type: physicochemical; conditions: average over iohexol:cyclodextrin mole ratios 1:0.25 to 1:1.5

In the case of CC(=O)N(CC(O)CO)c1c(I)c(C(=O)NCC(O)CO)c(I)c(C(=O)NCC(O)CO)c1I (stereo not shown) [Iohexol, iohexol], the “I- formed, UV” value ([1]; no SCD (SBE4.6γCD Control)) is reported as 0.141 wt %, the “I- formed, UV” value ([1]; no SCD (control)) is reported as 0.107 wt % and the “I^− formed” value ([1]; TRIS 10 mM, calcium disodium edetate 0.1 mg/mL, iohexol:SBE7-β-CD 1:0.05) is reported as 0.171 wt %. For the same compound, the “I^− formed” value ([1]; TRIS 10 mM, calcium disodium edetate 0.1 mg/mL, no SCD (1:0)) was 0.219 wt %, the “I^− formed” value ([1]; TRIS 10 mM, iohexol:SBE7-β-CD 1:0.05) was 0.128 wt % and the “I^− formed” value ([1]; TRIS 10 mM, iohexol:SBE7-β-CD 1:0.1) was 0.120 wt %. For the same compound, the “I^− formed” value ([1]; TRIS 10 mM, no SCD (1:0)) was 0.196 wt %, the “I^− formed” value ([1]; sodium phosphate 10 mM, calcium disodium edetate 0.1 mg/mL, iohexol:SBE7-β-CD 1:0.05) was 0.477 wt % and the “I^− formed” value ([1]; sodium phosphate 10 mM, calcium disodium edetate 0.1 mg/mL, no SCD (1:0)) was 0.520 wt %. For the same compound, the “I^− formed” value ([1]; sodium phosphate 10 mM, iohexol:SBE7-β-CD 1:0.05) was 0.504 wt %, the “I^− formed” value ([1]; sodium phosphate 10 mM, iohexol:SBE7-β-CD 1:0.1) was 0.469 wt % and the “I^− formed” value ([1]; sodium phosphate 10 mM, no SCD (1:0)) was 0.539 wt %. For the same compound, the “complexation (binding) constant of iohexol with sulfobutylether β-cyclodextrin” value [2] was “about 9.5 M^−1”.
